Several values for one entry are separate records, joined by “and”; a condition that tells them apart may be missing. Equal values may be shown once. The campaign covered roughly 360,000 compounds. About 7,500 (2.1%) were called active. This list was built around the results that the source calls inconclusive (neither active nor inactive); the mix of calls is not that of the screen. The call rests on the fitted dose curve; in most records, active means well fitted inhibition curve with a large enough effect; inconclusive means small, poorly fitted or top-dose-only effect, or effect the other way; inactive means flat fitted curve, though single readings scatter. Potencies of inconclusive entries are doubtful fits and often do not repeat.
Experiment: Nrf2 qHTS screen for inhibitors; further: nearly all actives have a fitted effect of over 60% in size
Settings: A549 ARE-Fluc reporter, luciferase luminescence, 18-24 h; activity change, negative = inhibition: at 46 µM (top of the series)
Summary of the method: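 Concentration-response testing used A549 ARE_Fluc cells at 5000 cells/well. Following an 18-24 h compound incubation, viability was read by fluorescence (Ex 405/Em 525) and luciferase output by luminescence.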
On the % scale 0 is the no-effect control and ±100 the full control effect; potency means the concentration at half of the fitted maximal effect.

**Q.** With `Clc1ccc2[nH]c3c(NCCN4CCOCC4)ncnc3c2c1` as the molecule, how does the Potency read?
**A.** inconclusive: 29.1 µM [falling, single point]

**Q.** Which Potency does the source give for `COc1ccc(NC(=O)Nc2nnc(N(CC(C)C)CC(C)C)s2)c(OC)c1` here?
**A.** inconclusive: 20.6 µM [falling, single point]

**Q.** With `CCN(C(=O)c1cc2c(s1)-c1ccccc1OC2)c1cccc(C(F)(F)F)c1` as the molecule, how does the Potency read?
**A.** inconclusive: 18.4 µM [falling, single point]

**Q.** Which Potency does the source give for `O=C(CSc1nc2ccccc2s1)Nc1ccc(Cl)c(C(=O)O)c1` here?
**A.** inconclusive: 32.6 µM [activator, partial curve, poor fit]

**Q.** With `C#CC[N+](CC)(CC)CC#Cc1cccc(Cl)c1` as the molecule, how does the Potency read?
**A.** active: 10.3 µM

**Q.** With `O=C(N/N=C/c1cccs1)c1cccc(NC(=O)c2ccccc2Cl)c1` as the molecule, how does the Potency read?
**A.** inconclusive: 4.11 µM [activator, partial curve, poor fit]

**Q.** Which Potency does the source give for `COc1ccccc1CC(=O)N1CCN(c2cccc(Cl)c2)CC1` here?
**A.** inconclusive: 16.4 µM [falling, single point]

**Q.** Which Potency does the source give for `O=C(Cn1c(-c2cccs2)cc2ccccc21)NCCCN1CCN(c2ccccc2F)CC1` here?
**A.** inconclusive: 29.1 µM [falling, single point]

**Q.** With `Cc1ccc(NC(=O)c2c(NC(=O)C(F)(F)F)sc3c2CCCCC3)cc1` as the molecule, how does the Potency read?
**A.** active: 2.59 µM

**Q.** Which Potency does the source give for `Cc1cc(C)c(S(=O)(=O)Nc2ccc3[nH]c(=O)[nH]c3c2)c(C)c1` here?
**A.** inconclusive: 18.4 µM [falling, single point]

**Q.** For `Cc1ccc(CNC(=O)Cn2cccc2C(=O)c2ccccc2C)cc1`, which Potency is on record?
**A.** inconclusive: 23.1 µM [activator, single point]

**Q.** Which “activity change, negative = inhibition” value does the source give for `O=C(CSc1n[nH]c(=O)n1-c1ccccc1)N1CCOCC1` here?
**A.** inactive: -1.11%

**Q.** With `CNC(=S)N1N=C(c2ccc(C)cc2)CC1c1ccc(OC)c(OC)c1` (stereo unspecified) as the molecule, how does the Potency read?
**A.** inconclusive: 18.4 µM [falling, single point]

**Q.** With `Cc1ccccc1NC(=O)CSc1ccc(-c2cccs2)nn1` as the molecule, how does the Potency read?
**A.** inconclusive: 11.6 µM [falling, single point]

**Q.** Which Potency does the source give for `COc1cccc(OC)c1C(=O)NC(=S)Nc1ccc(S(=O)(=O)Nc2nccs2)cc1` here?
**A.** inconclusive: 23.1 µM [falling, partial curve, poor fit]

**Q.** Which Potency does the source give for `O=c1[nH]c(SCc2ccc([N+](=O)[O-])cc2)nc2c1CCCC2` here?
**A.** inconclusive: 14.6 µM [activator, partial curve, poor fit]

**Q.** Which Potency does the source give for `Cc1ccc(/C=C/C(=O)c2ccc(N3CCOCC3)cc2)s1` here?
**A.** inconclusive: 5.8 µM [activator, full curve]

**Q.** For `CCOC(=O)Cn1cnc2c(cnn2-c2ccc(Cl)cc2)c1=O`, which Potency is on record?
**A.** inconclusive: 9.2 µM [activator, partial curve]

**Q.** For `Cc1ccc(NC(=O)c2ccc(OCc3c(C)noc3C)cc2)nc1`, which Potency is on record?
**A.** inconclusive: 23.1 µM [falling, single point]

**Q.** With `CCc1nc2ccccc2c(C(=O)OCC(=O)N(C)Cc2ccccc2)c1C` as the molecule, how does the Potency read?
**A.** inconclusive: 10.3 µM [falling, partial curve]

**Q.** With `COc1ccc(CNC(=O)CN(c2ccc(C)cc2)S(=O)(=O)c2c(C)n[nH]c2C)cc1` as the molecule, how does the Potency read?
**A.** inconclusive: 2.31 µM [activator, partial curve, poor fit]

**Q.** Which Potency does the source give for `CCOC(=O)Cn1nnc2c(sc3nc4c(c(-c5ccc(Cl)cc5)c32)CCC4)c1=O` here?
**A.** inconclusive: 18.4 µM [falling, single point]

**Q.** Which Potency does the source give for `COc1cc(NC(=O)n2ncc3cc(Cl)ccc32)cc(OC)c1` here?
**A.** inconclusive: 32.6 µM [falling, single point]

**Q.** Which Potency does the source give for `O=S(=O)(Nc1cc(Br)cc2cccnc12)c1cccc2ccccc12` here?
**A.** active: 2.31 µM

**Q.** Which “activity change, negative = inhibition” value does the source give for `CCOc1ccc(N2CC(C(=O)N3CCN(C(=O)c4ccco4)CC3)CC2=O)cc1` (stereo unspecified) here?
**A.** inactive: 3.5%

**Q.** Which Potency does the source give for `CC(C)c1ccccc1-n1c(SCC(=O)N2CCc3ccccc3C2)nc2ccccc2c1=O` here?
**A.** active: 8.2 µM

**Q.** Which “activity change, negative = inhibition” value does the source give for `O=S(=O)(c1ccccc1F)N1CCN(Cc2cc3c(cc2O)OCO3)CC1` here?
**A.** inactive: -7.25%

**Q.** With `Cc1ccc(C)c(N2CCN(C(=O)c3cnc4c(-c5ccccc5)c(C)nn4c3C)CC2)c1` as the molecule, how does the “activity change, negative = inhibition” value read?
**A.** inactive: -5.82%

**Q.** Which “activity change, negative = inhibition” value does the source give for `Cc1ccc(/C=C(\C#N)C(=O)Nc2cc(C)ccc2C)cc1` here?
**A.** inactive: 5.62%

**Q.** With `CCOC(=O)c1c(NC(C)=O)c2c3c(sc2n1Cc1nc(-c2ccccc2OCC)oc1C)CCCC3` as the molecule, how does the “activity change, negative = inhibition” value read?
**A.** inactive: -2.19%

**Q.** With `COc1cccc(NC(=O)Cn2cc(C(=O)C3CCCCC3)c3ccccc32)c1` as the molecule, how does the Potency read?
**A.** inconclusive: 20.6 µM [falling, single point]

**Q.** Which “activity change, negative = inhibition” value does the source give for `Cc1ccc(C(=O)NC(C)c2ccc(F)cc2)cc1` (stereo unspecified) here?
**A.** inactive: -14.2%

**Q.** Which Potency does the source give for `NC(=O)c1c(NC(=O)c2cccnc2)sc2c1CCCC2` here?
**A.** inconclusive: 9.2 µM [activator, partial curve]

**Q.** Which Potency does the source give for `Cc1ccnc(N/C=C(\C#N)c2nc(-c3cccc(Br)c3)cs2)c1` here?
**A.** inconclusive: 16.4 µM [falling, single point]

**Q.** For `COc1ccc2nc(N3CCOCC3)cc(C)c2c1`, which Potency is on record?
**A.** inconclusive: 1.64 µM [activator, full curve]

**Q.** Which Potency does the source give for `O=C(c1cccs1)N1CCCC(c2nc3c(nnn3Cc3c(Cl)cccc3Cl)c(=O)[nH]2)C1` (stereo unspecified) here?
**A.** inconclusive: 8.2 µM [falling, partial curve]

**Q.** For `S=C(NCCCc1cnc[nH]1)NCCCN(Cc1ccc(Cl)cc1)c1ccc(-c2ccccc2)cn1`, which “activity change, negative = inhibition” value is on record?
**A.** inactive: -0%

**Q.** For `COc1ccccc1NC(=S)NC1CCCCCCCCCCC1`, which Potency is on record?
**A.** inconclusive: 0.0041 µM [falling, full curve, poor fit]

**Q.** With `CC(NC(=O)c1cccc(S(=O)(=O)N2CCN(Cc3ccccc3)CC2)c1)c1ccccc1Cl` (stereo unspecified) as the molecule, how does the Potency read?
**A.** inconclusive: 29.1 µM [falling, single point]

**Q.** For `COCc1cc(C)nc(SCc2nc3ccccc3c(=O)[nH]2)c1C#N`, which Potency is on record?
**A.** inconclusive: 7.31 µM [falling, partial curve, poor fit]

**Q.** With `O=C(OCc1nnc(-c2ccccc2)o1)c1ccc(Br)o1` as the molecule, how does the “activity change, negative = inhibition” value read?
**A.** inactive: 1.03%

**Q.** Which Potency does the source give for `COc1ccc(CCC(=O)Nc2ccc(Cl)c(S(=O)(=O)N3CCCC3)c2)cc1` here?
**A.** active: 18.4 µM

**Q.** Which Potency does the source give for `CCC1=Nc2cc(C(=O)NCc3ccco3)ccc2Sc2ccc(C)cc21` here?
**A.** inconclusive: 2.91 µM [activator, full curve]

**Q.** For `COc1cc(NC(=O)C(CC(C)C)NS(=O)(=O)c2ccc3c(c2)CCCC(=O)N3)cc(OC)c1` (stereo unspecified), which Potency is on record?
**A.** inconclusive: 2.06 µM [falling, partial curve, poor fit]

**Q.** For `CC(NC(=O)CN1CCN(S(=O)(=O)c2ccc(Br)cc2)CC1)c1ccccc1` (stereo unspecified), which Potency is on record?
**A.** inconclusive: 18.4 µM [falling, partial curve, poor fit]

**Q.** Which Potency does the source give for `Clc1ccc(Nc2nc(-c3cccnc3)cs2)cc1` here?
**A.** inconclusive: 29.1 µM [activator, single point]

**Q.** Which Potency does the source give for `CC(=O)c1ccc(N/N=C2/CCCNC2=O)cc1` here?
**A.** inconclusive: 29.1 µM [activator, single point]

**Q.** For `CC/C(=N\NC(=O)CSCc1ccccc1Br)c1ccc2c(c1)OCCO2`, which Potency is on record?
**A.** inconclusive: 6.51 µM [activator, single point]

**Q.** With `Cc1ccc(N2CCN(c3ccc(C)cc3)C2c2cccnc2)cc1` as the molecule, how does the Potency read?
**A.** inconclusive: 14.6 µM [falling, partial curve, poor fit]

**Q.** With `O=c1cc(-c2ccccc2F)oc2ccccc12` as the molecule, how does the “activity change, negative = inhibition” value read?
**A.** inactive: 19%

**Q.** Which Potency does the source give for `CCOc1ccc(C2c3c(-c4ccc(C)cc4)n[nH]c3C(=O)N2c2ccc(Cl)cc2)cc1` (stereo unspecified) here?
**A.** inconclusive: 29.1 µM [falling, single point]

**Q.** Which Potency does the source give for `CC(=O)O[C@H]1c2ccccc2-c2ccccc2[C@@H]1OC(C)=O` here?
**A.** inconclusive: 29.1 µM [falling, single point]

**Q.** With `O=C(NC(=S)Nc1ccccn1)c1ccccc1` as the molecule, how does the Potency read?
**A.** inconclusive: 0.259 µM [activator, full curve, poor fit]

**Q.** Which Potency does the source give for `COc1cccc(/C=C/c2ccc3cccc(O)c3n2)c1` here?
**A.** inconclusive: 16.4 µM [activator, partial curve]

**Q.** With `CCN(CC)C(=O)c1ccc(Oc2ccc([N+](=O)[O-])cc2Cl)cc1` as the molecule, how does the Potency read?
**A.** inconclusive: 29.1 µM [falling, single point]

**Q.** Which Potency does the source give for `O=S(=O)(Nc1cccc(-c2nc3cccnc3s2)c1)c1ccc2c(c1)OCCO2` here?
**A.** inconclusive: 18.4 µM [falling, single point]

**Q.** With `Cn1ncc2c(Nc3ccc(O)cc3)nc(Cl)nc21` as the molecule, how does the “activity change, negative = inhibition” value read?
**A.** inactive: -14.4%

**Q.** With `COc1ccc(-n2nc3cc(C)c(NC(=O)c4cccnc4)cc3n2)cc1` as the molecule, how does the “activity change, negative = inhibition” value read?
**A.** inactive: -4.87%

**Q.** With `O=C(Nc1ccc(-c2cc(C(F)(F)F)nn2-c2ccccc2)cc1)c1cccc(F)c1` as the molecule, how does the Potency read?
**A.** active: 13 µM

**Q.** For `Cc1ccc(-c2[nH]ncc2/C=N/n2c(COc3ccccc3)nc3ccccc3c2=O)cc1`, which Potency is on record?
**A.** inconclusive: 20.6 µM [falling, single point]

**Q.** With `Cc1ccccc1C(=O)NNC(=O)c1cc(S(=O)(=O)N2CCOCC2)ccc1C` as the molecule, how does the Potency read?
**A.** inconclusive: 29.1 µM [falling, single point]

**Q.** With `C=CC[C@@H](CC(=O)N[C@H](CO)Cc1ccccc1)C(=O)N[C@H](C)COC(=O)[C@@H](CC=C)Cc1ccc(F)cc1` as the molecule, how does the “activity change, negative = inhibition” value read?
**A.** inactive: -13%

**Q.** For `Brc1ccccc1-n1ncc2c1ncn1nc(Cc3ccccc3)nc21`, which Potency is on record?
**A.** inconclusive: 3.26 µM [activator, single point]

**Q.** With `CCN(CC)S(=O)(=O)c1ccc(O)c(C(=O)OCC(=O)Nc2cc(C)c(C)cc2[N+](=O)[O-])c1` as the molecule, how does the Potency read?
**A.** inconclusive: 18.4 µM [falling, partial curve]

**Q.** For `Cc1ccc2c(c1)N(C(=O)CCC(=O)Nc1ccccc1Cl)CC(C)O2` (stereo unspecified), which Potency is on record?
**A.** inactive and inconclusive: 4.11 µM [activator, full curve, poor fit]

**Q.** For `Cc1ccc(S(=O)(=O)N2CCN(C(=O)CN3CCc4ccccc4C3)CC2)cc1`, which Potency is on record?
**A.** inconclusive: 29.1 µM [falling, partial curve, poor fit]

Source: PubChem BioAssay AID504444 (National Center for Advancing Translational Sciences (NCATS), 2011)
